Counter-ions that a name gives are not always drawn. This is one part of the list. The calls rarely recur for the same compound in another form.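 Kinases were expressed as nanoluciferase fusions in K562 cells and luminescence was read every 4 h between 2 and 18 h as percent of control, DMSO set to 100% and a positive control to 0%. A time point counts as decreased when the signal drops significantly (2 sigma). The hit call is the authors' own, does not follow from the count of time points alone, and its rule is not shown.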
Assays:
Experiment in all cases: kinase-Nluc reporter destabilization hit call (1 = scored as downregulated) (binary); higher = compound decreases kinase abundance
Details in all cases: K562, 2-18 h
[1] = target: ABL1 (UniProt P00519)
[2] = target: AKT1 (UniProt P31749)
[3] = target: ALK (UniProt Q9UM73)
[4] = target: ARAF (UniProt P10398)
[5] = target: AURKA (UniProt O14965)
[6] = target: AURKB (UniProt Q96GD4)
[7] = target: AURKC (UniProt Q9UQB9)
[8] = target: BLK (UniProt P51451)
[9] = target: BMX (UniProt P51813)
[10] = target: BRAF (UniProt P15056)
[11] = tested on: BRAF_V600E
[12] = target: BTK (UniProt Q06187)
[13] = target: CAMK2A (UniProt Q9UQM7)
[14] = target: CAMK2G (UniProt Q13555)
[15] = target: CDK10 (UniProt Q15131)
[16] = target: CDK2 (UniProt P24941)
[17] = target: CDK3 (UniProt Q00526)
[18] = target: CDK4 (UniProt P11802)
[19] = target: CDK5 (UniProt Q00535)
[20] = target: CDK6 (UniProt Q00534)

By UniProt entry, the sequences of proteins in these tests, tags left out. Where a name states a change or a piece, a line headed by the entry shows the natural chain unless it says otherwise.
UniProt P00519, whole entry: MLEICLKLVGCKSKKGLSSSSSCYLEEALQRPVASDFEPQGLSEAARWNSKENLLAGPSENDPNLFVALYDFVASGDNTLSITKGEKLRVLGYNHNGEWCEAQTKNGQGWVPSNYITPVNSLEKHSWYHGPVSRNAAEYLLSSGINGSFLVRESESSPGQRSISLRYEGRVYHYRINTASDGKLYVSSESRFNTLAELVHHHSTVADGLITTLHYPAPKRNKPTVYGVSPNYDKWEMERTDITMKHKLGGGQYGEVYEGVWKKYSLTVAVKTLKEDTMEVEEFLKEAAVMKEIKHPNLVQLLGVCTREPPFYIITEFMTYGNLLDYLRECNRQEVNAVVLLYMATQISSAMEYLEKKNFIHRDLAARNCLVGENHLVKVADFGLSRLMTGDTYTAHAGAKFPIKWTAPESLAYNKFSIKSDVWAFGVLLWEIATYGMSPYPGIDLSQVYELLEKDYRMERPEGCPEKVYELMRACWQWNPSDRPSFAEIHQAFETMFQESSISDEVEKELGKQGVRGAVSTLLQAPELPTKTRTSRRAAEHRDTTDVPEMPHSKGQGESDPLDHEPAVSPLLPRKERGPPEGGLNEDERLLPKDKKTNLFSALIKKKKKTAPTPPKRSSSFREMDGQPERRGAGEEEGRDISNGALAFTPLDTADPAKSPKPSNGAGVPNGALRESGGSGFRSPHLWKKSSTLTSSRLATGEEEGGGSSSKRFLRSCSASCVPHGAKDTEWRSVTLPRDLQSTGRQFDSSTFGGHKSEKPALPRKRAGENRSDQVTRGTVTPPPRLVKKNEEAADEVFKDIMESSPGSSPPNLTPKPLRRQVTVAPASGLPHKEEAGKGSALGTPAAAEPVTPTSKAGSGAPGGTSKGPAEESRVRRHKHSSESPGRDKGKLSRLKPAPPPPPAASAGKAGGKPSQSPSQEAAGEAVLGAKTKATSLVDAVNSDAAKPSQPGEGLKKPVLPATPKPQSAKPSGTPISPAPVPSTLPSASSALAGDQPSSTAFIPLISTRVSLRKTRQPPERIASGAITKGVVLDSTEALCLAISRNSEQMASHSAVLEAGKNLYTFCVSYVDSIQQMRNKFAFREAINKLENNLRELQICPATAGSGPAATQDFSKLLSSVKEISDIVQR
UniProt Q9UM73: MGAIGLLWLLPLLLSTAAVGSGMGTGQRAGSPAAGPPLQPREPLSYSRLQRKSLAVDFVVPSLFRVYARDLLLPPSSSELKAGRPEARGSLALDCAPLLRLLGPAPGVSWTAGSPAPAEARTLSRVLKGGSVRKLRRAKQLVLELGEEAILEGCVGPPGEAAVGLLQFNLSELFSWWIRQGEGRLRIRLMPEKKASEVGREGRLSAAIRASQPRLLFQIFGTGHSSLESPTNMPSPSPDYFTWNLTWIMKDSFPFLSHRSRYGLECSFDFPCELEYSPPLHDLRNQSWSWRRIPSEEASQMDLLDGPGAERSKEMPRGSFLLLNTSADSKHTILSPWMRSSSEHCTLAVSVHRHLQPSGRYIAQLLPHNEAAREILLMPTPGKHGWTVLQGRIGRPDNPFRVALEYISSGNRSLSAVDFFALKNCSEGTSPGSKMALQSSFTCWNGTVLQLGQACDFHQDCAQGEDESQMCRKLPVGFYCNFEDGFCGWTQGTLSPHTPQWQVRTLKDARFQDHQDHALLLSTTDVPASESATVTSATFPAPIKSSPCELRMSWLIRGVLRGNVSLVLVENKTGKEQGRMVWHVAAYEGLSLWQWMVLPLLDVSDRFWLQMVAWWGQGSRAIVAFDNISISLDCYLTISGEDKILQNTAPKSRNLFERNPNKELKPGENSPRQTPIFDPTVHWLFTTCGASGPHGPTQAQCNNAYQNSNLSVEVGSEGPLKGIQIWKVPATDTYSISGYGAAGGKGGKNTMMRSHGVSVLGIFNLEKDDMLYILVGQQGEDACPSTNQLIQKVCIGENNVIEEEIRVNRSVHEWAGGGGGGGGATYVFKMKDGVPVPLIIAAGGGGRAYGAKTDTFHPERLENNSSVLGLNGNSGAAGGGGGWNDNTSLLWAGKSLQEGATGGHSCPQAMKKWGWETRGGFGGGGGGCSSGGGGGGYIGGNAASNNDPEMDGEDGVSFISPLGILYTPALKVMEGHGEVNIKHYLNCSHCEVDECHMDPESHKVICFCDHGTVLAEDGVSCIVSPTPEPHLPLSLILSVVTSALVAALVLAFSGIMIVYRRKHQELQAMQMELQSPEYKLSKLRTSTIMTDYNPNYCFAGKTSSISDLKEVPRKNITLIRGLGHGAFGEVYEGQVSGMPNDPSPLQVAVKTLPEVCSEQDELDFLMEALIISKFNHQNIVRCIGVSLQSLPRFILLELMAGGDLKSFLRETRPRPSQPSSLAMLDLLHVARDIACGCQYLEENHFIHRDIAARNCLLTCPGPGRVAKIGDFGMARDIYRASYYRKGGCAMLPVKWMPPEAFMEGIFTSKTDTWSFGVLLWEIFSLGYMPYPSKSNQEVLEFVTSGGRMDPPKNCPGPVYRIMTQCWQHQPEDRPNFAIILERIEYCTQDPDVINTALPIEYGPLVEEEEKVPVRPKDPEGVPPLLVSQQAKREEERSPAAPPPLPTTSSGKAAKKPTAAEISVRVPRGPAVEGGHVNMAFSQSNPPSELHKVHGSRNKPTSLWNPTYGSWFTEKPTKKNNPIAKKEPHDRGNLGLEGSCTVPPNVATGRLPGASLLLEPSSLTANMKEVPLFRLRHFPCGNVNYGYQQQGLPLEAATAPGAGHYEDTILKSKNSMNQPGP
UniProt P10398: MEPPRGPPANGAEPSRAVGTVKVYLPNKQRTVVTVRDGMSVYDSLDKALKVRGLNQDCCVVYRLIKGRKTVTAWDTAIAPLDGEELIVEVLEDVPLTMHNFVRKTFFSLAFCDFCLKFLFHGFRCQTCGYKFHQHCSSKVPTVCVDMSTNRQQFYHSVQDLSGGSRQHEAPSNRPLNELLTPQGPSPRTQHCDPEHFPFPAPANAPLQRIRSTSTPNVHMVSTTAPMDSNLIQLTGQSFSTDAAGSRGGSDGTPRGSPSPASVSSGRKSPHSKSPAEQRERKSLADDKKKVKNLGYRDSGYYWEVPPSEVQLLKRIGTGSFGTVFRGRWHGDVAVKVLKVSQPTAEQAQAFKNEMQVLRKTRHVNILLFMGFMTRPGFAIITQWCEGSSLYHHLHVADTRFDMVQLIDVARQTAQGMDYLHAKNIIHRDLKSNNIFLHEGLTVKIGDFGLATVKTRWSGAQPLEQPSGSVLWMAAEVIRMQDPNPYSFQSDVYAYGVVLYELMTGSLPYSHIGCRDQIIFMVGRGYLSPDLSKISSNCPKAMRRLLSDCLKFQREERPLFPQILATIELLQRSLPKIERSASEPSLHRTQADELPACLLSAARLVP
UniProt O14965: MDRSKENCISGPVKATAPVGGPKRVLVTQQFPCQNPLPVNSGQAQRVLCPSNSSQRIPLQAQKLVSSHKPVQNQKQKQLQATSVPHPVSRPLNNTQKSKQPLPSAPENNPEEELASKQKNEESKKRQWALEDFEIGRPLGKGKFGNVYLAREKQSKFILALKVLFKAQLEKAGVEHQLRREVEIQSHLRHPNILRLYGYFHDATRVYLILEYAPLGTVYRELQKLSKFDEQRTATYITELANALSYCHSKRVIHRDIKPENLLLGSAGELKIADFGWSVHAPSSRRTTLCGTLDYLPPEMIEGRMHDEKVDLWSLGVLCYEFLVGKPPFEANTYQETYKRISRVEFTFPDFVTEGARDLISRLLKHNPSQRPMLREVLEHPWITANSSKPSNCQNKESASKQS
UniProt P51451: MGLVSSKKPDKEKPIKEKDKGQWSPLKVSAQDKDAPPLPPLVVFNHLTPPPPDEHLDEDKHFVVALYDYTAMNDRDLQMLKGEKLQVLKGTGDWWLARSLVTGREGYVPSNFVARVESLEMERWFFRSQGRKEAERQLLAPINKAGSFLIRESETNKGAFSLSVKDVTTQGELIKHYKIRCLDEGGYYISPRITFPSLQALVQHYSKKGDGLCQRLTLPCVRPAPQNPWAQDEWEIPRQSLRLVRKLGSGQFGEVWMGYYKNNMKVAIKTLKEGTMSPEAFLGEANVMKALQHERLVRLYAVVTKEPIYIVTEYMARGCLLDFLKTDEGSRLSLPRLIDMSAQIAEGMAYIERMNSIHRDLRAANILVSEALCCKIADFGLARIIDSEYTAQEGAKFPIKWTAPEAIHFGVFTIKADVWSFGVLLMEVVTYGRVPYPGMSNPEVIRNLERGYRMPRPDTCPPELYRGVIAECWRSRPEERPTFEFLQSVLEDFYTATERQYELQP
UniProt P51813: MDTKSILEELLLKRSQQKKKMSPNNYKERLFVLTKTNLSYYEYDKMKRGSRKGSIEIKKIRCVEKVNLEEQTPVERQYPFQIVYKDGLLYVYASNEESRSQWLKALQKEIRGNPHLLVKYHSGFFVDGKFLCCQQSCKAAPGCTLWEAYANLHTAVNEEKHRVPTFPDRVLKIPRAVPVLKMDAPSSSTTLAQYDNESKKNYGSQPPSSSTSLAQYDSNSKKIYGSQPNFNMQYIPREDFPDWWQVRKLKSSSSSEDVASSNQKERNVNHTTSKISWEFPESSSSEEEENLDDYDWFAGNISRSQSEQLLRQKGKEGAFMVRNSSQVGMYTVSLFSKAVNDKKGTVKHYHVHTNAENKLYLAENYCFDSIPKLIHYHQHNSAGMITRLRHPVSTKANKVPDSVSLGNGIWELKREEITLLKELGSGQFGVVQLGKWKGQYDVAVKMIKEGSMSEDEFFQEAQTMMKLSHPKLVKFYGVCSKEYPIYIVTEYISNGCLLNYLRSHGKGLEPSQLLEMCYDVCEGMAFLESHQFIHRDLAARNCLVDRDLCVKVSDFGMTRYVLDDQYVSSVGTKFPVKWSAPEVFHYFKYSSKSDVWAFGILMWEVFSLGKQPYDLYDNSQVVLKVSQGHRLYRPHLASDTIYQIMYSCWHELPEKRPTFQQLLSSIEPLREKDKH
UniProt Q13555: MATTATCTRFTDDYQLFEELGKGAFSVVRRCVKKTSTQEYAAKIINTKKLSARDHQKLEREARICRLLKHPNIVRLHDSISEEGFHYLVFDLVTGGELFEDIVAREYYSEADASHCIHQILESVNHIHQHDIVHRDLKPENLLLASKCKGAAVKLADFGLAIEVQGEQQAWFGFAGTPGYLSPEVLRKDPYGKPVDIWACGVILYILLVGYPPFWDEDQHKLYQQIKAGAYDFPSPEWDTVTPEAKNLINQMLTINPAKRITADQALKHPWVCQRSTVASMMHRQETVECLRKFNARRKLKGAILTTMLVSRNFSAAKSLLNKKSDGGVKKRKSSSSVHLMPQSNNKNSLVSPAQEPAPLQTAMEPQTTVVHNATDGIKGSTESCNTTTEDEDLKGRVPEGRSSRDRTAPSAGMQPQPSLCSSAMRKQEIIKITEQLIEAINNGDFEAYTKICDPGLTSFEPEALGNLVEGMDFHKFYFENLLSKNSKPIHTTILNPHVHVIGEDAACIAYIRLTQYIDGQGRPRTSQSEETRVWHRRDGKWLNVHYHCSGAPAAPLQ
UniProt Q15131: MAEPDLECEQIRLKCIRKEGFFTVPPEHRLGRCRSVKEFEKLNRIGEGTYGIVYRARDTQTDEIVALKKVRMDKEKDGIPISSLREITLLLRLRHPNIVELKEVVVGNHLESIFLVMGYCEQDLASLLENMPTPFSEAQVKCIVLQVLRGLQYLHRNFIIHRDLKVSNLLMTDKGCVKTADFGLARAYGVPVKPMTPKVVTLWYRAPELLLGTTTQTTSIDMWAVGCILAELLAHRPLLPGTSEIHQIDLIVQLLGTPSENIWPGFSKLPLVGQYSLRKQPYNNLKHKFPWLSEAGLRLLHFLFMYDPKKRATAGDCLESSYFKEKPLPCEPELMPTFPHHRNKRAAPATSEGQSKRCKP
UniProt P11802: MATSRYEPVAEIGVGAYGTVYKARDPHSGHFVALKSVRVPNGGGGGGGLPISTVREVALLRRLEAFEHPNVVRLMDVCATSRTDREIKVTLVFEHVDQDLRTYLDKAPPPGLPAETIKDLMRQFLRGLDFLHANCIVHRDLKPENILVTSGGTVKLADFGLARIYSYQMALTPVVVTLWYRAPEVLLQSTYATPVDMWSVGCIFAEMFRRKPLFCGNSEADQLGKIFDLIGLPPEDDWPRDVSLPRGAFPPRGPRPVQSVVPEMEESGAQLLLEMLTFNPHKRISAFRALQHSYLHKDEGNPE
UniProt Q00535, whole entry, looked up: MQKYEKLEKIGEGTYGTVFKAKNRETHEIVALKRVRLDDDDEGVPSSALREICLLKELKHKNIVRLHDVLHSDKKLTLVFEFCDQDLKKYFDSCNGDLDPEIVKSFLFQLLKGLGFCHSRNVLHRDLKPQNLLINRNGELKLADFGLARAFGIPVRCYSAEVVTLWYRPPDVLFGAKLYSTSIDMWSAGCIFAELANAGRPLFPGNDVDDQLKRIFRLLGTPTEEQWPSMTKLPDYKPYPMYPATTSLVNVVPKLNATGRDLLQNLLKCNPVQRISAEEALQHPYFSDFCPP

Measured: kinase-Nluc reporter destabilization hit call

C[C@@H](N)[C@H]1CC[C@H](C(=O)Nc2ccncc2)CC1
inactive: [1]; 10 µM 0 | [2]; 10 µM 0 | [3]; 10 µM 0 | [4]; 10 µM 0 | [5]; 10 µM 0 | [6]; 10 µM 0 | [7]; 10 µM 0 | [8]; 10 µM 0 | [9]; 10 µM 0 | [10]; 10 µM 0 | [11]; 10 µM 0 | [12]; 10 µM 0 | [13]; 10 µM 0 | [14]; 10 µM 0 | [15]; 10 µM 0 | [16]; 10 µM 0 | [17]; 10 µM 0 | [18]; 10 µM 0 | [19]; 10 µM 0 | [20]; 10 µM 0

COc1cc2c(cc1OC)-c1c(C)c3ccc(OC)c(OC)c3c[n+]1CC2 [Dehydrocorydaline]
inactive: [1]; 10 µM 0 | [2]; 10 µM 0 | [3]; 10 µM 0 | [4]; 10 µM 0 | [5]; 10 µM 0 | [6]; 10 µM 0 | [7]; 10 µM 0 | [8]; 10 µM 0 | [9]; 10 µM 0 | [10]; 10 µM 0 | [11]; 10 µM 0 | [12]; 10 µM 0 | [13]; 10 µM 0 | [14]; 10 µM 0 | [15]; 10 µM 0 | [16]; 10 µM 0 | [17]; 10 µM 0 | [18]; 10 µM 0 | [19]; 10 µM 0 | [20]; 10 µM 0

C[C@H](CCC(=O)NCCS(=O)(=O)O)[C@H]1CC[C@H]2[C@@H]3[C@@H](O)C[C@@H]4C[C@H](O)CC[C@]4(C)[C@H]3CC[C@]12C [Tauroursodeoxycholate (dihydrate)]
inactive: [1]; 10 µM 0 | [2]; 10 µM 0 | [3]; 10 µM 0 | [4]; 10 µM 0 | [5]; 10 µM 0 | [6]; 10 µM 0 | [7]; 10 µM 0 | [8]; 10 µM 0 | [9]; 10 µM 0 | [10]; 10 µM 0 | [11]; 10 µM 0 | [12]; 10 µM 0 | [13]; 10 µM 0 | [14]; 10 µM 0 | [15]; 10 µM 0 | [16]; 10 µM 0 | [17]; 10 µM 0 | [18]; 10 µM 0 | [19]; 10 µM 0 | [20]; 10 µM 0

C=CC(=O)Nc1cc(Nc2nccc(-c3cn(C4CC4)c4ccccc34)n2)c(OC)cc1N(C)CCN(C)C [Almonertinib (hydrochloride)]
inactive: [1]; 2.5 µM 0 | [2]; 2.5 µM 0 | [3]; 2.5 µM 0 | [4]; 2.5 µM 0 | [5]; 2.5 µM 0 | [6]; 2.5 µM 0 | [7]; 2.5 µM 0 | [8]; 2.5 µM 0 | [9]; 2.5 µM 0 | [10]; 2.5 µM 0 | [11]; 2.5 µM 0 | [12]; 2.5 µM 0 | [13]; 2.5 µM 0 | [14]; 2.5 µM 0 | [15]; 2.5 µM 0 | [16]; 2.5 µM 0 | [17]; 2.5 µM 0 | [18]; 2.5 µM 0 | [19]; 2.5 µM 0 | [20]; 2.5 µM 0

O=C(Nc1ccncc1)Nc1ccc(-c2nc(N3CCOCC3)nc(N3C4CCC3COC4)n2)cc1 [PKI-179 (hydrochloride)]
inactive: [2]; 2.5 µM 0 | [3]; 2.5 µM 0 | [4]; 2.5 µM 0 | [5]; 2.5 µM 0 | [6]; 2.5 µM 0 | [7]; 2.5 µM 0 | [8]; 2.5 µM 0 | [9]; 2.5 µM 0 | [10]; 2.5 µM 0 | [11]; 2.5 µM 0 | [12]; 2.5 µM 0 | [13]; 2.5 µM 0 | [14]; 2.5 µM 0 | [15]; 2.5 µM 0 | [16]; 2.5 µM 0 | [17]; 2.5 µM 0 | [18]; 2.5 µM 0 | [19]; 2.5 µM 0 | [20]; 2.5 µM 0
active: [1]; 2.5 µM 1

CNC(=O)c1cc(Oc2ccc(NC(=O)Nc3ccc(Cl)c(C(F)(F)F)c3)c(F)c2)ccn1 [Regorafenib (monohydrate)]
inactive: [1]; 2.5 µM 0 | [2]; 2.5 µM 0 | [3]; 2.5 µM 0 | [4]; 2.5 µM 0 | [5]; 2.5 µM 0 | [6]; 2.5 µM 0 | [7]; 2.5 µM 0 | [8]; 2.5 µM 0 | [9]; 2.5 µM 0 | [10]; 2.5 µM 0 | [11]; 2.5 µM 0 | [12]; 2.5 µM 0 | [13]; 2.5 µM 0 | [14]; 2.5 µM 0 | [15]; 2.5 µM 0 | [16]; 2.5 µM 0 | [17]; 2.5 µM 0 | [18]; 2.5 µM 0 | [19]; 2.5 µM 0 | [20]; 2.5 µM 0

COCCOc1cc(F)c2c(Nc3ccc(NC(=O)Cn4cc(C(C)C)nn4)cc3)ncnc2c1 [AZD3229 Tosylate]
inactive: [1]; 10 µM 0 | [2]; 10 µM 0 | [3]; 10 µM 0 | [4]; 10 µM 0 | [5]; 10 µM 0 | [6]; 10 µM 0 | [7]; 10 µM 0 | [8]; 10 µM 0 | [9]; 10 µM 0 | [10]; 10 µM 0 | [11]; 10 µM 0 | [12]; 10 µM 0 | [13]; 10 µM 0 | [14]; 10 µM 0 | [15]; 10 µM 0 | [16]; 10 µM 0 | [17]; 10 µM 0 | [18]; 10 µM 0 | [19]; 10 µM 0 | [20]; 10 µM 0

Reprinted at random: two entries already listed
C=CC(=O)Nc1cc(Nc2nccc(-c3cn(C4CC4)c4ccccc34)n2)c(OC)cc1N(C)CCN(C)C [Almonertinib (hydrochloride)]
inactive: [1]; 2.5 µM 0 | [2]; 2.5 µM 0 | [3]; 2.5 µM 0 | [4]; 2.5 µM 0 | [5]; 2.5 µM 0 | [6]; 2.5 µM 0 | [7]; 2.5 µM 0 | [8]; 2.5 µM 0 | [9]; 2.5 µM 0 | [10]; 2.5 µM 0 | [11]; 2.5 µM 0 | [12]; 2.5 µM 0 | [13]; 2.5 µM 0 | [14]; 2.5 µM 0 | [15]; 2.5 µM 0 | [16]; 2.5 µM 0 | [17]; 2.5 µM 0 | [18]; 2.5 µM 0 | [19]; 2.5 µM 0 | [20]; 2.5 µM 0

COCCOc1cc(F)c2c(Nc3ccc(NC(=O)Cn4cc(C(C)C)nn4)cc3)ncnc2c1 [AZD3229 Tosylate]
inactive: [1]; 10 µM 0 | [2]; 10 µM 0 | [3]; 10 µM 0 | [4]; 10 µM 0 | [5]; 10 µM 0 | [6]; 10 µM 0 | [7]; 10 µM 0 | [8]; 10 µM 0 | [9]; 10 µM 0 | [10]; 10 µM 0 | [11]; 10 µM 0 | [12]; 10 µM 0 | [13]; 10 µM 0 | [14]; 10 µM 0 | [15]; 10 µM 0 | [16]; 10 µM 0 | [17]; 10 µM 0 | [18]; 10 µM 0 | [19]; 10 µM 0 | [20]; 10 µM 0

The list continues:

C[C@H](CCC(=O)NCCS(=O)(=O)O)[C@H]1CC[C@H]2[C@@H]3[C@@H](O)C[C@@H]4C[C@H](O)CC[C@]4(C)[C@H]3CC[C@]12C [Tauroursodeoxycholate (sodium)]
inactive: [1]; 10 µM 0 | [2]; 10 µM 0 | [3]; 10 µM 0 | [4]; 10 µM 0 | [5]; 10 µM 0 | [6]; 10 µM 0 | [7]; 10 µM 0 | [8]; 10 µM 0 | [9]; 10 µM 0 | [10]; 10 µM 0 | [11]; 10 µM 0 | [12]; 10 µM 0 | [13]; 10 µM 0 | [14]; 10 µM 0 | [15]; 10 µM 0 | [16]; 10 µM 0 | [17]; 10 µM 0 | [18]; 10 µM 0 | [19]; 10 µM 0 | [20]; 10 µM 0

CC(C)Nc1cc(-c2c[nH]c(C(=O)N[C@H](CO)c3cccc(Cl)c3)c2)c(Cl)cn1 [Ulixertinib (hydrochloride)]
inactive: [1]; 10 µM 0 | [2]; 10 µM 0 | [3]; 10 µM 0 | [4]; 10 µM 0 | [5]; 10 µM 0 | [6]; 10 µM 0 | [7]; 10 µM 0 | [8]; 10 µM 0 | [9]; 10 µM 0 | [10]; 10 µM 0 | [11]; 10 µM 0 | [12]; 10 µM 0 | [13]; 10 µM 0 | [14]; 10 µM 0 | [15]; 10 µM 0 | [16]; 10 µM 0 | [17]; 10 µM 0 | [18]; 10 µM 0 | [19]; 10 µM 0 | [20]; 10 µM 0

FC(F)(F)c1ccc(CNc2ccc(Cc3c[nH]c4ncc(Cl)cc34)cn2)cn1 [Pexidartinib (hydrochloride)]
inactive: [1]; 10 µM 0 | [2]; 10 µM 0 | [3]; 10 µM 0 | [4]; 10 µM 0 | [5]; 10 µM 0 | [6]; 10 µM 0 | [7]; 10 µM 0 | [8]; 10 µM 0 | [9]; 10 µM 0 | [10]; 10 µM 0 | [11]; 10 µM 0 | [12]; 10 µM 0 | [13]; 10 µM 0 | [14]; 10 µM 0 | [15]; 10 µM 0 | [16]; 10 µM 0 | [17]; 10 µM 0 | [18]; 10 µM 0 | [19]; 10 µM 0 | [20]; 10 µM 0

O=C(c1ccc(F)c(F)c1Nc1ccc(I)cc1F)N1CC(O)([C@@H]2CCCCN2)C1 [Cobimetinib (hemifumarate)]
inactive: [1]; 10 µM 0 | [2]; 10 µM 0 | [3]; 10 µM 0 | [4]; 10 µM 0 | [5]; 10 µM 0 | [6]; 10 µM 0 | [7]; 10 µM 0 | [8]; 10 µM 0 | [9]; 10 µM 0 | [10]; 10 µM 0 | [11]; 10 µM 0 | [12]; 10 µM 0 | [13]; 10 µM 0 | [14]; 10 µM 0 | [15]; 10 µM 0 | [16]; 10 µM 0 | [17]; 10 µM 0 | [18]; 10 µM 0 | [19]; 10 µM 0 | [20]; 10 µM 0

CN(C)C(=N)NC(=N)N [Metformin (hydrochloride)]
inactive: [1]; 10 µM 0 | [2]; 10 µM 0 | [3]; 10 µM 0 | [4]; 10 µM 0 | [5]; 10 µM 0 | [6]; 10 µM 0 | [7]; 10 µM 0 | [8]; 10 µM 0 | [9]; 10 µM 0 | [10]; 10 µM 0 | [11]; 10 µM 0 | [12]; 10 µM 0 | [13]; 10 µM 0 | [14]; 10 µM 0 | [15]; 10 µM 0 | [16]; 10 µM 0 | [17]; 10 µM 0 | [18]; 10 µM 0 | [19]; 10 µM 0 | [20]; 10 µM 0

CNC(=O)c1ccccc1Nc1cc(Nc2ccc(N3CCOCC3)cc2OC)ncc1C(F)(F)F
inactive: [1]; 10 µM 0 | [2]; 10 µM 0 | [3]; 10 µM 0 | [4]; 10 µM 0 | [5]; 10 µM 0 | [6]; 10 µM 0 | [7]; 10 µM 0 | [8]; 10 µM 0 | [9]; 10 µM 0 | [10]; 10 µM 0 | [11]; 10 µM 0 | [12]; 10 µM 0 | [13]; 10 µM 0 | [14]; 10 µM 0 | [15]; 10 µM 0 | [16]; 10 µM 0 | [17]; 10 µM 0 | [18]; 10 µM 0 | [19]; 10 µM 0 | [20]; 10 µM 0

CNC(=O)c1ccc(Nc2ncc(C(F)(F)F)c(NCc3nccnc3N(C)S(C)(=O)=O)n2)cc1 [Defactinib]
inactive: [1]; 10 µM 0 | [2]; 10 µM 0 | [3]; 10 µM 0 | [4]; 10 µM 0 | [5]; 10 µM 0 | [6]; 10 µM 0 | [7]; 10 µM 0 | [8]; 10 µM 0 | [9]; 10 µM 0 | [10]; 10 µM 0 | [11]; 10 µM 0 | [12]; 10 µM 0 | [13]; 10 µM 0 | [14]; 10 µM 0 | [15]; 10 µM 0 | [16]; 10 µM 0 | [17]; 10 µM 0 | [18]; 10 µM 0 | [19]; 10 µM 0 | [20]; 10 µM 0

COc1cc2c(Oc3ccc4[nH]c(C)cc4c3F)ncnc2cc1OCCCN1CCCC1 [Cediranib (maleate)]
inactive: [1]; 2.5 µM 0 | [2]; 2.5 µM 0 | [3]; 2.5 µM 0 | [4]; 2.5 µM 0 | [5]; 2.5 µM 0 | [6]; 2.5 µM 0 | [7]; 2.5 µM 0 | [8]; 2.5 µM 0 | [9]; 2.5 µM 0 | [10]; 2.5 µM 0 | [11]; 2.5 µM 0 | [12]; 2.5 µM 0 | [13]; 2.5 µM 0 | [14]; 2.5 µM 0 | [15]; 2.5 µM 0 | [16]; 2.5 µM 0 | [17]; 2.5 µM 0 | [18]; 2.5 µM 0 | [19]; 2.5 µM 0 | [20]; 2.5 µM 0

COc1cc2nccc(Nc3cc(OC)c(OC)c(OC)c3)c2cc1OC [GAK inhibitor 49]
inactive: [1]; 10 µM 0 | [2]; 10 µM 0 | [3]; 10 µM 0 | [4]; 10 µM 0 | [5]; 10 µM 0 | [6]; 10 µM 0 | [7]; 10 µM 0 | [8]; 10 µM 0 | [9]; 10 µM 0 | [10]; 10 µM 0 | [11]; 10 µM 0 | [12]; 10 µM 0 | [13]; 10 µM 0 | [14]; 10 µM 0 | [15]; 10 µM 0 | [16]; 10 µM 0 | [17]; 10 µM 0 | [18]; 10 µM 0 | [19]; 10 µM 0 | [20]; 10 µM 0
